Assay results as given in article PMC10182982.

By UniProt entry, the sequences of proteins in these tests, tags left out.
UniProt Q16877: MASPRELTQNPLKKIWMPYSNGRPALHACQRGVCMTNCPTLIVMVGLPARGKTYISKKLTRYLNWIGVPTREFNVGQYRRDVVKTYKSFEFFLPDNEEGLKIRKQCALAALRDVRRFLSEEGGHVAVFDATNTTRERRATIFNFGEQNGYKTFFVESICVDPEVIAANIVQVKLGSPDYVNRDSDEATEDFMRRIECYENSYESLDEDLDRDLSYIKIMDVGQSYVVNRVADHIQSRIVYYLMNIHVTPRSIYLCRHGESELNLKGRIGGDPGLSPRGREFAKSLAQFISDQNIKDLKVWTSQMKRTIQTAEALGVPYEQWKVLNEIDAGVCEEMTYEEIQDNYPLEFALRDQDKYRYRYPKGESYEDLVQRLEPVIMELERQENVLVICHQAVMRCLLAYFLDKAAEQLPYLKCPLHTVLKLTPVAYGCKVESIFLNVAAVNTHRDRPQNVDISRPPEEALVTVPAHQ

Target: T1, Flag-HA-FBXL7 (UniProt Q9UJT9)
T1 sequence: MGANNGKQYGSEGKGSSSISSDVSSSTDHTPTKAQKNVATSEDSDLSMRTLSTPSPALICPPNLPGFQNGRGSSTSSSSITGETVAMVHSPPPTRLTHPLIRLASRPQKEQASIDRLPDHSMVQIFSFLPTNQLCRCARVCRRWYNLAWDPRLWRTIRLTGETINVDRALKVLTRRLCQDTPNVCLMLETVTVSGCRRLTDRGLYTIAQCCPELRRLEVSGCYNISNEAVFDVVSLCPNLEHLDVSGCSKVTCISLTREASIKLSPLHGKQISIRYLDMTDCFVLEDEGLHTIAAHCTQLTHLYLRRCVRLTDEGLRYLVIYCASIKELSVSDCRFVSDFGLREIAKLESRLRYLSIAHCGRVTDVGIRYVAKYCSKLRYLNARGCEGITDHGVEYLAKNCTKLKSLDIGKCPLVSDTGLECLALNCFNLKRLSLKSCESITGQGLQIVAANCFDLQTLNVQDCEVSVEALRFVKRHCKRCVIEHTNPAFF
Assay: affinity purification with mass spectrometry; tandem affinity purification of Flag-HA-FBXL7 from transfected 293T cells (RIPA lysate): anti-Flag agarose, 3xFlag peptide elution, anti-HA agarose, SDS-PAGE, LC-MS

binding: binds
Substance: 6-phosphofructo-2-kinase/fructose-2,6-biphosphatase 4 (PFKFB4), endogenous (from UniProt Q16877 1-469)

These are yes or no findings as the source states them, for the method shown. In cells and extracts the contact can be indirect. Here binding means that the protein was enriched with, or labelled near, the bait; the list need not be complete. Tags and fused reporters may be left off the sequences shown.
